The subject of assay [1] is hAMSC donor 1. The assay can be described thus: Hoechst total cell count ratio vs vehicle control; higher = more cells (less toxicity).
The test system of assay [2] is hAMSC donor 2. The assay is described as above.
The subject of assay [3] is hAMSC donor 1. The assay can be described thus: transgenic luciferase activity (RLU/mg protein) fold change vs vehicle control (ratio); higher = more transgene expression.
Assay [4] deals with hAMSC donor 2. The description is as above.
Assay [5] concerns hAMSC donor 1. The assay can be described thus: transfection efficiency (EGFP+ cells / Hoechst count) fold change vs vehicle control (ratio); hAMSC are human adipose-derived mesenchymal stem cells given an EGFP-luciferase plasmid by lipofection; higher = enhanced transfection.
Assay [6] has as its system hAMSC donor 2. The assay is described as above.
Where [7] appears, read: priming compound concentration 0.2 µM.
Setting [8] is: priming compound concentration 1.7 µM.
Setting [9] is: priming compound concentration 13 µM.

From the supplement of paper PMC7238544 come the findings set out here.

SMILES strings stand for the structures. Counter-ions that a name gives are not always drawn. ± gives the standard deviation of the averaged measurements. The list shows a part of the results. The data scatter; read single values as rough.

As to `O=C1Nc2ccc(Cl)cc2C(c2ccccc2Cl)=NC1O` (stereo not given) [Lorazepam], the “Hoechst total cell count ratio” value in assay [1] (setting [7]) was found to be 1.17 ± 0.026; in assay [1] (setting [8]), 1.13 ± 0.086; in assay [1] (setting [9]) it was 1.36 ± 0.14; in assay [2] (setting [7]) it was 1.75 ± 0.15; in assay [2] (setting [8]), 1.63 ± 0.34; in assay [2] (setting [9]), 1.51 ± 0.11. Also, the transgenic luciferase activity amounted to 1.01 ± 0.23 in assay [3] (setting [8]), 0.406 ± 0.082 in assay [4] (setting [7]) and 0.667 ± 0.12 in assay [4] (setting [8]). Also, the transfection efficiency in assay [5] (setting [7]) is 0.659 ± 0.24; in assay [5] (setting [8]) it was 1.09 ± 0.46; in assay [5] (setting [9]), 0.647 ± 0.078; in assay [6] (setting [7]) it was 0.567 ± 0.038; in assay [6] (setting [8]), 0.551 ± 0.21; in assay [6] (setting [9]) it was 0.722 ± 0.082.

As to `CC(C)c1cccc(C(C)C)c1O` [Propofol], the “Hoechst total cell count ratio” value in assay [1] (setting [7]) came to 1.12 ± 0.16; in assay [1] (setting [8]) it was 1.29 ± 0.26; in assay [1] (setting [9]), 1.21 ± 0.087; in assay [2] (setting [7]) it was 1.1 ± 0.12; in assay [2] (setting [8]), 1.08 ± 0.15; in assay [2] (setting [9]), 1.19 ± 0.022. Also, the transgenic luciferase activity in assay [3] (setting [7]) stood at 1.52 ± 0.98; in assay [4] (setting [7]) it was 0.901 ± 0.31. Further, the transfection efficiency was found to be 0.63 ± 0.23 in assay [5] (setting [7]); 1.13 ± 0.17 in assay [5] (setting [8]); 1.23 ± 0.29 in assay [5] (setting [9]); 1.13 ± 0.19 in assay [6] (setting [7]); 0.816 ± 0.085 in assay [6] (setting [8]); 0.929 ± 0.11 in assay [6] (setting [9]).

Regarding `Oc1cc(Cl)ccc1Oc1ccc(Cl)cc1Cl` [Triclosan], the “Hoechst total cell count ratio” value was determined as 1.3 ± 0.16 in assay [1] (setting [7]); 1.32 ± 0.15 in assay [1] (setting [8]); 1.03 ± 0.18 in assay [1] (setting [9]); 1.07 ± 0.094 in assay [2] (setting [7]); 0.855 ± 0.14 in assay [2] (setting [8]); 0.94 ± 0.3 in assay [2] (setting [9]). In addition, the transgenic luciferase activity in assay [3] (setting [7]) came out at 0.394 ± 0.21; in assay [3] (setting [9]), 1.2 ± 1.1; in assay [4] (setting [7]) it was 0.792 ± 0.15; in assay [4] (setting [8]), 0.659 ± 0.35. Also, the transfection efficiency in assay [5] (setting [7]) turned out to be 0.944 ± 0.11; in assay [5] (setting [8]), 1.28 ± 0.21; in assay [5] (setting [9]) it was 1.13 ± 0.37; in assay [6] (setting [7]), 1.03 ± 0.42; in assay [6] (setting [8]), 1.16 ± 0.091; in assay [6] (setting [9]) it was 1.33 ± 0.18.

Take `O=P1(N(CCCl)CCCl)NCCCO1` (stereo not given) [Cyclophosphamide hydrate]: the “Hoechst total cell count ratio” value in assay [1] (setting [7]) stood at 1.29 ± 0.062; in assay [1] (setting [8]) it was 1.26 ± 0.28; in assay [1] (setting [9]) it was 1.31 ± 0.1; in assay [2] (setting [7]), 1.1 ± 0.023; in assay [2] (setting [8]), 1.16 ± 0.012; in assay [2] (setting [9]) it was 1.41 ± 0.066. Moreover, the transgenic luciferase activity in assay [3] (setting [9]) amounted to 0.798 ± 0.12; in assay [4] (setting [7]), 0.754 ± 0.15; in assay [4] (setting [9]), 0.723 ± 0.13. Besides, the transfection efficiency in assay [5] (setting [7]) amounted to 0.773 ± 0.12; in assay [5] (setting [8]), 1.14 ± 0.14; in assay [5] (setting [9]) it was 0.918 ± 0.15; in assay [6] (setting [7]), 1.2 ± 0.18; in assay [6] (setting [8]) it was 1 ± 0.13; in assay [6] (setting [9]), 0.853 ± 0.061.

In the case of `CC(NC(C)(C)C)C(=O)c1cccc(Cl)c1` (stereo not given) [Bupropion hydrochloride], the “Hoechst total cell count ratio” value in assay [1] (setting [7]) was determined as 1.22 ± 0.069; in assay [1] (setting [8]), 1.23 ± 0.08; in assay [1] (setting [9]) it was 1.4 ± 0.073; in assay [2] (setting [7]), 1.03 ± 0.061; in assay [2] (setting [8]), 1.43 ± 0.33; in assay [2] (setting [9]), 1.01 ± 0.28. In assay [3] (setting [9]), the transgenic luciferase activity is 0.746 ± 0.24. The transfection efficiency in assay [5] (setting [7]) came to 0.903 ± 0.26; in assay [5] (setting [8]), 1.15 ± 0.16; in assay [5] (setting [9]) it was 0.572 ± 0.068; in assay [6] (setting [7]), 1.13 ± 0.17; in assay [6] (setting [8]), 1.26 ± 0.12; in assay [6] (setting [9]) it was 0.885 ± 0.26.

Consider `C=CCN1CC[C@]23c4c5ccc(O)c4O[C@H]2C(=O)CC[C@@]3(O)[C@H]1C5` [Naloxone hydrochloride], for which the “Hoechst total cell count ratio” value was found to be 1.3 ± 0.17 in assay [1] (setting [7]); 1.36 ± 0.26 in assay [1] (setting [8]); 1.5 ± 0.043 in assay [1] (setting [9]); 1.18 ± 0.038 in assay [2] (setting [7]); 1.11 ± 0.089 in assay [2] (setting [8]); 1.24 ± 0.12 in assay [2] (setting [9]). Besides, the transgenic luciferase activity in assay [3] (setting [9]) was found to be 0.604 ± 0.11; in assay [4] (setting [7]), 0.88 ± 0.13; in assay [4] (setting [9]), 0.89 ± 0.41. For the same compound, the transfection efficiency in assay [5] (setting [7]) amounted to 1 ± 0.32; in assay [5] (setting [8]) it was 1.17 ± 0.29; in assay [5] (setting [9]), 0.995 ± 0.27; in assay [6] (setting [7]) it was 1.3 ± 0.12; in assay [6] (setting [8]), 0.987 ± 0.017; in assay [6] (setting [9]) it was 0.927 ± 0.092.

On to `COc1cc(N)c(Cl)cc1C(=O)NC1CN2CCC1CC2` (stereo not given) [Zacopride hydrochloride hydrate], for which the “Hoechst total cell count ratio” value in assay [1] (setting [7]) came to 1.24 ± 0.027; in assay [1] (setting [8]), 1.21 ± 0.13; in assay [1] (setting [9]), 0.968 ± 0.028; in assay [2] (setting [7]), 1.07 ± 0.2; in assay [2] (setting [8]), 0.785 ± 0.1; in assay [2] (setting [9]), 1.31 ± 0.15. The transgenic luciferase activity amounted to 2.07 ± 1.1 in assay [3] (setting [8]), 0.817 ± 0.23 in assay [4] (setting [7]), 5.41 ± 3.2 in assay [4] (setting [8]) and 1.31 ± 0.62 in assay [4] (setting [9]). The transfection efficiency in assay [5] (setting [7]) worked out at 1.01 ± 0.14; in assay [5] (setting [8]), 1.07 ± 0.52; in assay [5] (setting [9]) it was 0.906 ± 0.23; in assay [6] (setting [7]), 1.4 ± 0.42; in assay [6] (setting [8]), 1.42 ± 0.26; in assay [6] (setting [9]) it was 0.963 ± 0.23.

Take `Cc1ccc(-c2nc3ccc(C)cn3c2CC(=O)N(C)C)cc1` [Zolpidem tartrate]: the “Hoechst total cell count ratio” value came to 1.14 ± 0.034 in assay [1] (setting [7]); 1.42 ± 0.074 in assay [1] (setting [8]); 1.37 ± 0.39 in assay [1] (setting [9]); 1.18 ± 0.24 in assay [2] (setting [7]); 0.608 ± 0.086 in assay [2] (setting [8]); 0.862 ± 0.28 in assay [2] (setting [9]). Also, the transgenic luciferase activity in assay [3] (setting [7]) worked out at 0.68 ± 0.17; in assay [3] (setting [8]), 0.715 ± 0.29; in assay [4] (setting [8]), 0.648 ± 0.024; in assay [4] (setting [9]) it was 0.332 ± 0.27. The transfection efficiency in assay [5] (setting [7]) came out at 1.32 ± 0.21; in assay [5] (setting [8]), 1.06 ± 0.16; in assay [5] (setting [9]) it was 1.24 ± 0.11; in assay [6] (setting [7]), 0.813 ± 0.2; in assay [6] (setting [8]), 1.9 ± 0.24; in assay [6] (setting [9]), 1.24 ± 0.21.
